Data: patent US20260315454A1, “Use of quinoline-4-carboxylic acid in the preparation of anti-aging product as well as product for protecting liver and promoting liver regeneration” (Guangzhou Riju Trade Development Co., Ltd., priority 2023, published 2026)

Columns and labels:
[1] = test system: GS iPSC; assay: metabolomics of GS iPSC cells after freezing-rewarming; parameters: species or system thirteen-lined ground squirrel; details: endogenous metabolite
[2] = test system: hamster liver; assay: metabolomics of hamster liver in cold storage-normothermic perfusion; parameters: species or system golden hamsters; details: endogenous metabolite

What does the source list for `O=C(O)c1ccnc2ccccc12` [quinoline-4-carboxylic acid]?
content of quinoline-4-carboxylic acid in metabolome during rewarming ([1]; 37° C. for 2 h after 4° C.): decreases during rewarming; content of quinoline-4-carboxylic acid in metabolome during cold adaptation ([1]; Hibernate-A medium, 4° C. for 4 h): increases during cold adaptation; content of quinoline-4-carboxylic acid in liver metabolome during normothermic perfusion ([2]; 37° C. for 2 h after cold storage): decreases during normothermic perfusion; content of quinoline-4-carboxylic acid in liver metabolome during cold storage ([2]; UW solution, 4° C. for 48 h): increases during cold storage
